No constants are given. Whether binding was seen depends on the method and setting. In cells and extracts the contact can be indirect. Some binding calls cover weakened binding; strength is not graded here. For part of these data: Sequences can lack the tags named with a protein.
T1: PHGDH-Flag (phosphoglycerate dehydrogenase, Flag-tagged), overexpressed in RAW264.7 cells (UniProt Q61753)
T1 sequence: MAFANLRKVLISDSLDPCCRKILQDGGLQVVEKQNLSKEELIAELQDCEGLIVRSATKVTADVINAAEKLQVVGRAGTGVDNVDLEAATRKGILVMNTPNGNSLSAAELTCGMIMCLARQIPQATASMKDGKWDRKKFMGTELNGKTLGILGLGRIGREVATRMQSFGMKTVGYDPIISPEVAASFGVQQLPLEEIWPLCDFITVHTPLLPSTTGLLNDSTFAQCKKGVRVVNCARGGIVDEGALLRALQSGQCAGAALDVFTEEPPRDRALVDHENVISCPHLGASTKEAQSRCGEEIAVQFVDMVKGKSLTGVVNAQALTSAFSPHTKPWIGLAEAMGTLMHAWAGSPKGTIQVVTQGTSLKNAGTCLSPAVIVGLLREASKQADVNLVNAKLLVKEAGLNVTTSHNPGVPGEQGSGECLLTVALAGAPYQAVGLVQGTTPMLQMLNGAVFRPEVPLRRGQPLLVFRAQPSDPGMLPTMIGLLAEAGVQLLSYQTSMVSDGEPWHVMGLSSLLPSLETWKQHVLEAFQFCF

The chains behind the UniProt entries cited, without tags or fusion partners. Residues count along the entry.
UniProt Q8BJQ4: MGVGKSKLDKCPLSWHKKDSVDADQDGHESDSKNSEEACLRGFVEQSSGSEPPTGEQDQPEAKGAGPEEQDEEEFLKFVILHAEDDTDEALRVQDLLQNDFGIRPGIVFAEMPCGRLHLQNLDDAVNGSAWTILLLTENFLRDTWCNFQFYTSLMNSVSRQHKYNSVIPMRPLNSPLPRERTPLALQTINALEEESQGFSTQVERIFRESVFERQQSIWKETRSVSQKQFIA
UniProt Q62406: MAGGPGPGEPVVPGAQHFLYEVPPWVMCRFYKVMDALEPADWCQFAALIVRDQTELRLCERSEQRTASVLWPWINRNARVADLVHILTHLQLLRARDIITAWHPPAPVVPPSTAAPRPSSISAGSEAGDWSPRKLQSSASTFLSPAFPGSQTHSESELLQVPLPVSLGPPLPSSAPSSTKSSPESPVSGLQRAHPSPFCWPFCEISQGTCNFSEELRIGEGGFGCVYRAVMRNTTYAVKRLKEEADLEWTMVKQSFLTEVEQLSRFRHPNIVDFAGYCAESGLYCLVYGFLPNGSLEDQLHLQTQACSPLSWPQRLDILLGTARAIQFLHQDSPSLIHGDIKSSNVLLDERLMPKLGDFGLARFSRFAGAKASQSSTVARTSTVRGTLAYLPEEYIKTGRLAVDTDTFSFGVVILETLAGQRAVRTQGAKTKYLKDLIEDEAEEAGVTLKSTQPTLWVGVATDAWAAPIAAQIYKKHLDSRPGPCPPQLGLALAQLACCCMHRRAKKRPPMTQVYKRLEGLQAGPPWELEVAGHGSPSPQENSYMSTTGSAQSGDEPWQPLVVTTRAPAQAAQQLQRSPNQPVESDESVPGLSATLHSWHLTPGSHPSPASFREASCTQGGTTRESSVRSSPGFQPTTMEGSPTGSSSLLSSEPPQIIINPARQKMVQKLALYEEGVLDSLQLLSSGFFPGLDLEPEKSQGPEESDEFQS
UniProt P22366: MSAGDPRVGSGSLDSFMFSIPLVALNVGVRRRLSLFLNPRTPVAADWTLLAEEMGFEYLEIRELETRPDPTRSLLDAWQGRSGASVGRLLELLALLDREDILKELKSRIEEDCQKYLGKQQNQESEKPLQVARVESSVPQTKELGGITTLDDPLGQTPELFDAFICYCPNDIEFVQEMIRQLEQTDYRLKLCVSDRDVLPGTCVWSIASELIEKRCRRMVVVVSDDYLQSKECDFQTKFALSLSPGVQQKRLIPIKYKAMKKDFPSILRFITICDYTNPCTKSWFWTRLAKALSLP
UniProt Q9QUK6, residues 26-835: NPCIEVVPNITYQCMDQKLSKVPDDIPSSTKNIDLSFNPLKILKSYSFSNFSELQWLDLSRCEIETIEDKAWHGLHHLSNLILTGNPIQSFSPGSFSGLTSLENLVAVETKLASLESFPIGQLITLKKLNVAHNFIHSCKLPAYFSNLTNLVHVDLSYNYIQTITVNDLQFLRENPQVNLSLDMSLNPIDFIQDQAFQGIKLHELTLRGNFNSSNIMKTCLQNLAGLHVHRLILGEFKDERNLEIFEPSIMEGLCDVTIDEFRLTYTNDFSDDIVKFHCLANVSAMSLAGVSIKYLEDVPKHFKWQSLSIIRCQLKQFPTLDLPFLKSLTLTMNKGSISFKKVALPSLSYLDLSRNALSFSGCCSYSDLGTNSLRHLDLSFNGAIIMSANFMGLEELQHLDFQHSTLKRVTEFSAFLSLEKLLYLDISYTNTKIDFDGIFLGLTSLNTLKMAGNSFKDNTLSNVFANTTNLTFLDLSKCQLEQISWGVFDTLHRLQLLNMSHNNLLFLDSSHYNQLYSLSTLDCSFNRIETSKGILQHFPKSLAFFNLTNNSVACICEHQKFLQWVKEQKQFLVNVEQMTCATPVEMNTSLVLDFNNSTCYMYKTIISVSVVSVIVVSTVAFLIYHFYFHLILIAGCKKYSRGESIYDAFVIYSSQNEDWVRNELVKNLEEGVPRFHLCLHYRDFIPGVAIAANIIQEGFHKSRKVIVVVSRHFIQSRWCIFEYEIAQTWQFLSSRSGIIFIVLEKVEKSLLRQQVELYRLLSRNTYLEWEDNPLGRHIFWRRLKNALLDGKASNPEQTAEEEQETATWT

T2: TAK1 in RAW264.7 cells transfected with the indicated plasmids (Figure 6C) (UniProt Q62073)
T2 sequence: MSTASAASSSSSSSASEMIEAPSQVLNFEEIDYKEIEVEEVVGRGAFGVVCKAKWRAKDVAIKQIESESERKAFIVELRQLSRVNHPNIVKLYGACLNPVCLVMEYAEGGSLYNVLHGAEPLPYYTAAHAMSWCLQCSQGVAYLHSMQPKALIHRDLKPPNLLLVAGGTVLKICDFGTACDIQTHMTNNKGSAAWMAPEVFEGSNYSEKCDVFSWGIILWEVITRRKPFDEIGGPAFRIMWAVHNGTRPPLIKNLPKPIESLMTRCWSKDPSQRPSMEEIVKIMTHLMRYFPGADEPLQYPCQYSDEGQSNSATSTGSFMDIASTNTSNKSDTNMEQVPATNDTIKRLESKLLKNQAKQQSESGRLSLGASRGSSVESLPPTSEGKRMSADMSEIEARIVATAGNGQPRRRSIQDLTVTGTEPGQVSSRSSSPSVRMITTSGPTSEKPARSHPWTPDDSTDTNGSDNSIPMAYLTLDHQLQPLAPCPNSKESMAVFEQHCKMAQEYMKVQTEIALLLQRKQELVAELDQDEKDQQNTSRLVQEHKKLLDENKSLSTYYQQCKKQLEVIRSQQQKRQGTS

B1: IRAK4 in RAW264.7 cell extracts (enzyme, UniProt Q8R4K2 1-459)
chain: MNKPLTPSTYIRNLNVGILRKLSDFIDPQEGWKKLAVAIKKPSGDDRYNQFHIRRFEALLQTGKSPTCELLFDWGTTNCTVGDLVDLLVQIELFAPATLLLPDAVPQTVKSLPPREAATVAQTHGPCQEKDRTSVMPMPKLEHSCEPPDSSSPDNRSVESSDTRFHSFSFHELKSITNNFDEQPASAGGNRMGEGGFGVVYKGCVNNTIVAVKKLGAMVEISTEELKQQFDQEIKVMATCQHENLVELLGFSSDSDNLCLVYAYMPNGSLLDRLSCLDGTPPLSWHTRCKVAQGTANGIRFLHENHHIHRDIKSANILLDKDFTAKISDFGLARASARLAQTVMTSRIVGTTAYMAPEALRGEITPKSDIYSFGVVLLELITGLAAVDENREPQLLLDIKEEIEDEEKTIEDYTDEKMSDADPASVEAMYSAASQCLHEKKNRRPDIAKVQQLLQEMSA
B2: IRF3 in RAW264.7 cell extracts (protein, UniProt P70671 1-419)
chain: METPKPRILPWLVSQLDLGQLEGVAWLDESRTRFRIPWKHGLRQDAQMADFGIFQAWAEASGAYTPGKDKPDVSTWKRNFRSALNRKEVLRLAADNSKDPYDPHKVYEFVTPGARDFVHLGASPDTNGKSSLPHSQENLPKLFDGLILGPLKDEGSSDLAIVSDPSQQLPSPNVNNFLNPAPQENPLKQLLAEEQWEFEVTAFYRGRQVFQQTLFCPGGLRLVGSTADMTLPWQPVTLPDPEGFLTDKLVKEYVGQVLKGLGNGLALWQAGQCLWAQRLGHSHAFWALGEELLPDSGRGPDGEVHKDKDGAVFDLRPFVADLIAFMEGSGHSPRYTLWFCMGEMWPQDQPWVKRLVMVKVVPTCLKELLEMAREGGASSLKTVDLHISNSQPISLTSDQYKAYLQDLVEDMDFQATGNI
B3: TRAF6 in RAW264.7 cell extracts (enzyme, UniProt P70196 1-530)
chain: MSLLNCENSCGSSQSSSDCCAAMAASCSAAVKDDSVSGSASTGNLSSSFMEEIQGYDVEFDPPLESKYECPICLMALREAVQTPCGHRFCKACIIKSIRDAGHKCPVDNEILLENQLFPDNFAKREILSLTVKCPNKGCLQKMELRHLEDHQVHCEFALVNCPQCQRPFQKCQVNTHIIEDCPRRQVSCVNCAVSMAYEEKEIHDQSCPLANIICEYCGTILIREQMPNHYDLDCPTAPIPCTFSVFGCHEKMQRNHLARHLQENTQLHMRLLAQAVHNVNLALRPCDAASPSRGCRPEDPNYEETIKQLESRLVRQDHQIRELTAKMETQSMYVGELKRTIRTLEDKVAEMEAQQCNGIYIWKIGNFGMHLKSQEEERPVVIHSPGFYTGRPGYKLCMRLHLQLPTAQRCANYISLFVHTMQGEYDSHLPWPFQGTIRLTILDQSEALIRQNHEEVMDAKPELLAFQRPTIPRNPKGFGYVTFMHLEALRQGTFIKDDTLLVRCEVSTRFDMGGLRKEGFQPRSTDAGV
B4: TRIF in RAW264.7 cell extracts (protein, UniProt Q80UF7 1-732)
chain: MDNPGPSLRGAFGILGALERDRLTHLKHKLGSLCSGSQESKLLHAMVLLALGQDTEARVSLESLKMNTVAQLVAHQWADMETTEGPEEPPDLSWTVARLYHLLAEENLCPASTRDMAYQVALRDFASQGDHQLGQLQNEAWDRCSSDIKGDPSGFQPLHSHQGSLQPPSASPAVTRSQPRPIDTPDWSWGHTLHSTNSTASLASHLEISQSPTLAFLSSHHGTHGPSKLCNTPLDTQEPQLVPEGCQEPEEISWPPSVETSVSLGLPHEISVPEVSPEEASPILPDALAAPDTSVHCPIECTELSTNSRSPLTSTTESVGKQWPITSQRSPQVPVGDDSLQNTTSSSPPAQPPSLQASPKLPPSPLSSASSPSSYPAPPTSTSPVLDHSETSDQKFYNFVVIHARADEQVALRIREKLETLGVPDGATFCEEFQVPGRGELHCLQDAIDHSGFTILLLTASFDCSLSLHQINHALMNSLTQSGRQDCVIPLLPLECSQAQLSPDTTRLLHSIVWLDEHSPIFARKVANTFKTQKLQAQRVRWKKAQEARTLKEQSIQLEAERQNVAAISAAYTAYVHSYRAWQAEMNKLGVAFGKNLSLGTPTPSWPGCPQPIPSHPQGGTPVFPYSPQPPSFPQPPCFPQPPSFPQPPSFPLPPVSSPQSQSFPSASSPAPQTPGPQPLIIHHAQMVQLGVNNHMWGHTGAQSSDDKTECSENPCMGPLTDQGEPLLETPE
B5: IKKβ in RAW264.7 cell extracts (enzyme, UniProt O88351 1-757)
chain: MSWSPSLPTQTCGAWEMKERLGTGGFGNVIRWHNQATGEQIAIKQCRQELSPKNRNRWCLEIQIMRRLNHPNVVAARDVPEGMQNLAPNDLPLLAMEYCQGGDLRRYLNQFENCCGLREGAVLTLLSDIASALRYLHENRIIHRDLKPENIVLQQGEKRLIHKIIDLGYAKELDQGSLCTSFVGTLQYLAPELLEQQKYTVTVDYWSFGTLAFECITGFRPFLPNWQPVQWHSKVRQKSEVDIVVSEDLNGAVKFSSSLPFPNNLNSVLAERLEKWLQLMLMWHPRQRGTDPQYGPNGCFRALDDILNLKLVHVLNMVTGTVHTYPVTEDESLQSLKTRIQENTGILETDQELLQKAGLVLLPDKPATQCISDSKTNEGLTLDMDLVFLLDNSKINYETQITPRPPPESVSCILQEPKRNLSFFQLRKVWGQVWHSIQTLKEDCNRLQQGQRAAMMSLLRNNSCLSKMKNAMASTAQQLKAKLDFFKTSIQIDLEKYKEQTEFGITSDKLLLAWREMEQAVEQCGRENDVKHLVERMMALQTDIVDLQRSPMGRKQGGTLDDLEEQARELYRKLREKPRDQRTEGDSQEMVRLLLQAIQSFEKKVRVIYTQLSKTVVCKQKALELLPKVEEVVSLMNEDERTVVRLQEKRQKELWNLLKIACSKVRGPVSGSPDSMNVSRLSHPGQLMSQPSSACDSLPESDKKSEELVAEAHALCSRLESALQDTVKEQDRSFTTLDWSWLQMEDEERCSLEQACD
B6: TAK1 (transforming growth factor-β–activated kinase 1), endogenous in RAW264.7 cells (enzyme, UniProt Q62073 1-579)
chain: T2 sequence
B7: PHGDH overexpressed in RAW264.7 cells (Figure 6C) (enzyme, UniProt Q61753 1-533)
chain: T1 sequence
B8: TAB1 (TAK1-binding protein) in RAW264.7 cells transfected with the indicated plasmids (Figure 6C) (protein, UniProt Q8CF89 1-502)
chain: MAAQRRSLLQSEQQPSWTDDLPLCHLSGVGSASNRSYSADGKGTESHPPEDNWLKFRSENNCFLYGVFNGYDGNRVTNFVAQRLSAELLLGQLNTEHTEADVRRVLLQAFDVVERSFLESIDDALAEKASLQSQLPEGVPQHQLPPQYQKILERLKALEREISGGAMAVVAVLLNSKLYVANVGTNRALLCKSTVDGLQVTQLNMDHTTENEDELFRLSQLGLDAGKIKQMGVICGQESTRRIGDYKVKYGYTDIDLLSAAKSKPIIAEPEIHGAQPLDGVTGFLVLMSEGLYKALEAAHGPGQANQEIAAMIDTEFAKQTSLDAVAQAVVDRVKRIHSDTFASGGERAKFCPRHEDMTLLVRNFGYPLGEMSQPTPTPAPGGRVYPVSVPYSSAQSTSKTSVTLSLVMPSQGQMVNGSHSASTLDEATPTLTNQSPTLTLQSTNTHTQSSSSSSDGGLFRSRPAHSLPPGEDGRVEPYVDFAEFYRLWSVDHGEQSVMTAP

The molecules below were run against T1, PHGDH-Flag (phosphoglycerate dehydrogenase, Flag-tagged), overexpressed in RAW264.7 cells (assay: co-IP; PHGDH-Flag precipitated with anti-Flag beads from RAW264.7 cell extracts with or without LPS stimulation; native lysis buffer; immunoblot).

| binding | Molecule |
| --- | --- |
| no binding | TRAM in RAW264.7 cell extracts (from UniProt Q8BJQ4 1-232) |
| no binding | IRAK1 in RAW264.7 cell extracts (from UniProt Q62406 1-710) (enzyme) |
| no binding | MyD88 in RAW264.7 cell extracts (from UniProt P22366 1-296) |
| no binding | TLR4 (Toll-like receptor 4) in RAW264.7 cell extracts (from UniProt Q9QUK6 26-835) |
| no binding | B1 |
| no binding | B2 |
| no binding | B3 |
| no binding | B4 |
| no binding | B5 |
| binds | B6 |

These molecules were tested against T2, TAK1 in RAW264.7 cells transfected with the indicated plasmids (Figure 6C) (assay: co-IP; RAW264.7 cells transfected with the indicated plasmids and treated with LPS for 30 min; immunoprecipitation and immunoblot).

| binding | Molecule |
| --- | --- |
| binds | B7 |
| binds | B8 |
